Patent publication US12366570B2, “Cell-based ZNT8 assay” (THE JOHNS HOPKINS UNIVERSITY, priority 2019, dated 2025)
Some results come without the dose or concentration used.

System: endogenous ZnT8 in EndoC-βH1 cells
Assay: ZnT8-ELISA assay validation (signal-to-noise of mAb immunodetection)
Format: cell-based, human
Conditions: for signal-to-noise ratio probing endogenous ZnT8: saturating mAb concentration (1:600 dilution)

B1: mAb20: anti-ZnT8 monoclonal antibody; heavy chain and light chain SEQ ID NOS:32 and 37 (antibody)
heavy: MDMRVPAQLLGLLLLWLRGARCQIQLVQSGPELKKPGETVKISCKASGYIFTNYPMHWVKQAPGKGLKWMGWINTYSGVPTHADDFKGRFAFSLETSANSAFLQINNLKNEDTATYFCTRSRITPTGGYAMDYWGQGTSVTVSSAKTTPPSVYPLAPGSAAQTNSMVTLGCLVKGYFPEPVTVTWNSGSLSSGVHTFPAVLQSDLYTLSSSVTVPSSTWPSETVTCNVAHPASSTKVDKKIVPRDCGCKPCICTVPEVSSVFIFPPKPKDVLTITLTPKVTCVVVDISKDDPEVQFSWFVDDVEVHTAQTQPREEQFNSTFRSVSELPIMHQDWLNGKEFKCRVNSAAFPAPIEKTISKTKGRPKAPQVYTIPPPKEQMAKDKVSLTCMITDFFPEDITVEWQWNGQPAENYKNTQPIMDTDGSYFVYSKLNVQKSNWEAGNTFTCSVLHEGLHNHHTEKSLSHSPGK
light: MDMRVPAQLLGLLLLWLRGARCDVVMTQTPLSLPVSLGDQASISCRSSQSLVHSNGNTYLHWYLQKPGQSPNLLISKVSNRFSGVPERFSGSGSGTDFTLKISRVEAEDLGVYFCSQNTHVPWTFGGGTKLEIKRADAAPTVSIFPPSSEQLTSGGASVVCFLNNFYPKDINVKWKIDGSERQNGVLNSWTDQDSKDSTYSMSSTLTLTKDEYERHNSYTCEATHKTSTSPIVKSFNRNEC
modifications: mAb20 heavy chain; mAb20 light chain
In the case of B1, the “Z′ score” value (95×10^3 cells) is reported as 0.8 and the “signal-to-noise ratio probing endogenous ZnT8” value is reported as “significant signal-to-noise ratio”.

B2: mAb39: anti-ZnT8 monoclonal antibody; heavy chain and light chain SEQ ID NOS:52 and 57 (antibody)
heavy: MGWSCIMFFLVATATDVHSQVQLQQPGAELVKPGASVKLSCKASGYSFTTYWMHWVKQRPGQGLEWVGDINPRNGRTNYNEKSKSKATLTVDISSSTVYMQVSSLTSEDSAVYYCAIWSGAMDYWGPGTSVTVSSAKTTAPSVYPLAPVCGDTTGSSVTLGCLVKGYFPEPVTLTWNSGSLSSDVHTFPALLQSGLYTLSSSVTVTTWPSQTITCNVAHPASSTKVDKKIEPRGSPTHKPCPPCPAPNLLGGPSVFIFPPKIKDVLMISLSPMVTCVVVDVSEDDPDVHVSWFVNNVEVHTAQTQTHREDYNSTIRVVSALPIQHQDWMSGKEFKCKVNNKALPAPIERTISKPKGPVRAPQVYVLPPPEEEMTKKQVTLTCMITDFMPEDIYVEWTNNGQTELNYKNTEPVLDSDGSYFMYSKLRVEKKNWVERNSYSCSVVHEGLHNHHTTKSFSRSPGK
light: MKLPVRLLVLMFWIPASSSDVVMTQTPLSLPVSLGDQPSISCKSSQSLVHNNGNTYLHWYLQKPGQSPKLLIYKVSNRFSGVPDRFSGSGSGTDFTLKISRVEAEDLGVYFCSQTTHVPPTFGGGTKLEIKRADAAPTVSIFPPSSEQLTSGGASVVCFLNNFYPKDINVKWKIDGSERQNGVLNSWTDQDSKDSTYSMSSTLTLTKDEYERHNSYTCEATHKTSTSPIVKSFNRGEC
modifications: mAb39 heavy chain; mAb39 light chain
With B2 the “signal-to-noise ratio probing endogenous ZnT8” value was “only mAb20 had a significant signal-to-noise ratio”.
